In publication PMC12680731:
Results are given in words; binding and its absence hold for the method and conditions named. In cells and extracts the contact can be indirect. Some binding calls cover weakened binding; strength is not graded here. For some assays here: Tags and fused reporters may be left off the sequences shown.

The chains behind the UniProt entries cited, without tags or fusion partners.
UniProt O89090: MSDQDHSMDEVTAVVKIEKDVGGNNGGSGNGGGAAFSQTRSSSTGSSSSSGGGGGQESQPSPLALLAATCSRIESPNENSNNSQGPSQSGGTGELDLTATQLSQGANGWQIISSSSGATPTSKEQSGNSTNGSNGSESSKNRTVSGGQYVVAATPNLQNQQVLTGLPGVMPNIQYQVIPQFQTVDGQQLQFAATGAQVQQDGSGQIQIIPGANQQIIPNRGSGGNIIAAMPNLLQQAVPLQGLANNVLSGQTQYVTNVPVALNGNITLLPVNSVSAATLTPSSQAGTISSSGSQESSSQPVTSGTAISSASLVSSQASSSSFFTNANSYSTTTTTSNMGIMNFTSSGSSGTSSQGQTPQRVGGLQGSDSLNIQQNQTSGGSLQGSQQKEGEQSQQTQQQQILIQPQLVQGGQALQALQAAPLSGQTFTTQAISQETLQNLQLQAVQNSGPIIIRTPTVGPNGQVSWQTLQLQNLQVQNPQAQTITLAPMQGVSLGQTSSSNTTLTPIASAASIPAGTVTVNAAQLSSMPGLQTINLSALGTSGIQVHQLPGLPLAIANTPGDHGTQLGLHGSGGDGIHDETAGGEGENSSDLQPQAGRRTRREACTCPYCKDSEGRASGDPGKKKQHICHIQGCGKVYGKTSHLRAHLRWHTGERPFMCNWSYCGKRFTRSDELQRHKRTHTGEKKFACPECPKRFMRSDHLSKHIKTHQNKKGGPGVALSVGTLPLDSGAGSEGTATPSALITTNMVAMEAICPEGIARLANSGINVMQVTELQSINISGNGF
UniProt Q63844: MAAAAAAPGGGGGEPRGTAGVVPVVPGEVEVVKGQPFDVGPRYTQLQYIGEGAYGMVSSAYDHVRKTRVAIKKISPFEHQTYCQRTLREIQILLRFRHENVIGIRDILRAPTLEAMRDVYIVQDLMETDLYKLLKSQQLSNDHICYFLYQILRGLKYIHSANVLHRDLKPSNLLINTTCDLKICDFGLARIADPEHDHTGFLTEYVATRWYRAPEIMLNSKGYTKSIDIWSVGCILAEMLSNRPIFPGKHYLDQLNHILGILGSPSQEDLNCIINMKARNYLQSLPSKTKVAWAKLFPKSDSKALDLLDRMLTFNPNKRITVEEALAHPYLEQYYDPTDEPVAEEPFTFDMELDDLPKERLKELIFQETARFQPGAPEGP

Columns and labels:
[1] = target: T1, sodium-glucose co-transporter 1 (SGLT1) (mouse (endogenous in cardiac tissue of wildtype mice)) (UniProt Q8C3K6); assay: co-IP; total cardiac protein from wildtype mice; tissue homogenised in lysis buffer (20 mM Tris HCl pH 8, 137 mM NaCl, 1% NP-40, 2 mM EDTA) at 4 °C; immunoprecipitated with anti-Sp1 or anti-SGLT1 primary antibody and protein A agarose beads; immunoprecipitate probed on immunoblots for ERK1
T1 sequence: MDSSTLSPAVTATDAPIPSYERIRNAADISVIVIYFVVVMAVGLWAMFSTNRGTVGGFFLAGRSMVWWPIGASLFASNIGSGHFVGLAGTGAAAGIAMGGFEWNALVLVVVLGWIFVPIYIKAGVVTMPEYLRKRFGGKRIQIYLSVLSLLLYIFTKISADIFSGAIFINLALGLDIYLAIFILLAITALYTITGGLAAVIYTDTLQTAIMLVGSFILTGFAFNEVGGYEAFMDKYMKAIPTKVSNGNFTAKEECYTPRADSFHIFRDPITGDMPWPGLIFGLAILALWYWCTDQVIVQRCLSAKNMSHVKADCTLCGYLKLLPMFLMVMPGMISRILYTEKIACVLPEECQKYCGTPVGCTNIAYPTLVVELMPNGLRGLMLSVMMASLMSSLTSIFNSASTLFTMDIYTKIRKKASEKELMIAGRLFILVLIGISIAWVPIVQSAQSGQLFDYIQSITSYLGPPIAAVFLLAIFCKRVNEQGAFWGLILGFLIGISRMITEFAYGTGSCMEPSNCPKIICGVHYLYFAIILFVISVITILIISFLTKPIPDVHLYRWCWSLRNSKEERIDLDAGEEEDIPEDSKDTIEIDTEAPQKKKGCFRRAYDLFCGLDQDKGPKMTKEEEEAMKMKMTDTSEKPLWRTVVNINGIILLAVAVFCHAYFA

[2] = target: specificity protein 1 (Sp1) (mouse (endogenous in cardiac tissue of wildtype mice)) (UniProt O89090); assay: as above

binding [1]: binds
binding [2]: binds
Substance: ERK1 (from UniProt Q63844 1-380) (enzyme)
